Among the data in article PMC12333249 are binding values, retold here.

By UniProt entry, the sequences of proteins in these tests, tags left out. Where a name states a change or a piece, a line headed by the entry shows the natural chain unless it says otherwise. Residues count along the entry.
UniProt Q7KZF4: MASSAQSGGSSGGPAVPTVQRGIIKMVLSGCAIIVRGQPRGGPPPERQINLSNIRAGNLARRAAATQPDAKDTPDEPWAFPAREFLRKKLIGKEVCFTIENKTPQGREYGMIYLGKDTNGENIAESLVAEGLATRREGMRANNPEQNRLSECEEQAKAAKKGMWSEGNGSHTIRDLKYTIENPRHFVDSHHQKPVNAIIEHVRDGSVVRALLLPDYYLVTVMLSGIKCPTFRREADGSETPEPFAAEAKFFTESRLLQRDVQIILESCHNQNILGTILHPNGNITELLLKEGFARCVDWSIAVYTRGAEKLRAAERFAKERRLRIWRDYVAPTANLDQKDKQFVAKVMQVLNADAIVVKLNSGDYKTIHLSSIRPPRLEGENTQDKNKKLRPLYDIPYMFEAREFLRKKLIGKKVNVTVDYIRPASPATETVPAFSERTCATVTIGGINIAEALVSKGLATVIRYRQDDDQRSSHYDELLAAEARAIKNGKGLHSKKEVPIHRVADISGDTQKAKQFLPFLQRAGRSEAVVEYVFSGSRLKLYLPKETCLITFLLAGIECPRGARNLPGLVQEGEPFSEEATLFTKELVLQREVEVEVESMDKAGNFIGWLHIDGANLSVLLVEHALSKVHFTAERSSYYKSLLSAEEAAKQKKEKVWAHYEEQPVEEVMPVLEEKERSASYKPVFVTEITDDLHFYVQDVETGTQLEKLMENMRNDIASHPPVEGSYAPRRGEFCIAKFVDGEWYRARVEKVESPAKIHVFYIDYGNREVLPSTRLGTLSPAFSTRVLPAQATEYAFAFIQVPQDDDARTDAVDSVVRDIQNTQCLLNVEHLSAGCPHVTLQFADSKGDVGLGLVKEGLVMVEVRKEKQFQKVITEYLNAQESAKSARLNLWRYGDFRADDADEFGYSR
truncated SND1 (16–339): residues 16-339 of Q7KZF4

These are yes or no findings as the source states them, for the method shown. In cells and extracts the contact can be indirect. Some binding calls cover weakened binding; strength is not graded here. For some assays here: Where a sequence is shown, tags or fusion partners need not be part of it.

Experiment [1] deals with Staphylococcal nuclease and Tudor domain containing 1 (SND1) (human (endogenous in PCa cell lines; DU-145 and PC-3 are the lines used)) (UniProt Q7KZF4). The experiment can be described thus: co-IP; endogenous proteins; beads with 2 µg SND1 or MTDH antibody, cell lysate supernatant, overnight at 4 ℃, three washes, Western blotting with 10% input. Background: Immunoblotting shows a protein as a band on a membrane.

The target of the next experiment is truncated SND1 (16–339) (UniProt Q7KZF4). Nature of the experiment: co-IP; plasmids of FLAG-tagged SND1 (full length, truncated 16–339, 340–910) and HA-tagged truncated MTDH (364–582); bait not given.

B1: metadherin (MTDH) (protein, UniProt Q86UE4 1-582)
chain: MAARSWQDELAQQAEEGSARLREMLSVGLGFLRTELGLDLGLEPKRYPGWVILVGTGALGLLLLFLLGYGWAAACAGARKKRRSPPRKREEAAAVPAAAPDDLALLKNLRSEEQKKKNRKKLSEKPKPNGRTVEVAEGEAVRTPQSVTAKQPPEIDKKNEKSKKNKKKSKSDAKAVQNSSRHDGKEVDEGAWETKISHREKRQQRKRDKVLTDSGSLDSTIPGIENTITVTTEQLTTASFPVGSKKNKGDSHLNVQVSNFKSGKGDSTLQVSSGLNENLTVNGGGWNEKSVKLSSQISAGEEKWNSVSPASAGKRKTEPSAWSQDTGDANTNGKDWGRSWSDRSIFSGIGSTAEPVSQSTTSDYQWDVSRNQPYIDDEWSGLNGLSSADPNSDWNAPAEEWGNWVDEERASLLKSQEPIPDDQKVSDDDKEKGEGALPTGKSKKKKKKKKKQGEDNSTAQDTEELEKEIREDLPVNTSKTRPKQEKAFSLKTISTSDPAEVLVKNSQPIKTLPPATSTEPSVILSKSDSDKSSSQVPPILQETDKSKSNTKQNSVPPSQTKSETSWESPKQIKKKKKARRET
For B1, in experiment [1], the binding entry is “binds”.

B2: truncated MTDH (364–582) carrying an HA tag (domain or fragment, UniProt Q86UE4 364-582)
chain: YQWDVSRNQPYIDDEWSGLNGLSSADPNSDWNAPAEEWGNWVDEERASLLKSQEPIPDDQKVSDDDKEKGEGALPTGKSKKKKKKKKKQGEDNSTAQDTEELEKEIREDLPVNTSKTRPKQEKAFSLKTISTSDPAEVLVKNSQPIKTLPPATSTEPSVILSKSDSDKSSSQVPPILQETDKSKSNTKQNSVPPSQTKSETSWESPKQIKKKKKARRET
In the case of B2, in the experiment with truncated SND1 (16–339), the binding result was “binds”.
